Experimental data reported in patent US20260248863A1, “METHODS AND MATERIALS FOR TREATING GASTROINTESTINAL DISORDERS” (Mayo Foundation for Medical Education and Research, priority 2020, published 2026).
Some entries share one result that the patent states for a list of compounds. For at least one compound, name, drawing or mass did not settle the structure.

Tested on: fecal supernatant proteolytic activity (PA)
Test: Casein substrate-based assay of proteolytic activity (PA) of fecal supernatants with protease inhibitors
Format: biochemical, human
Conditions: apical preincubation, 0.1 mM E64; p<0.05

SMILES: CC(C)C[C@H](NC(=O)[C@H]1O[C@@H]1C(=O)O)C(=O)NCCCCN=C(N)N [E64]
- inhibition of PA: 67-68%
